From US20230330180A1 (priority 2022, published 2023) come the findings set out here.

This data set can be described thus: in vitro. Conditions: African green monkey.

SMILES strings stand for the structures. Bounds are passed on as bounds.

With `CCC(CC)COC(=O)[C@H](C)N[P@](=O)(OC[C@H]1O[C@@](C#N)(c2ccc3c(N)ncnn23)[C@H](O)[C@@H]1O)Oc1ccccc1` [Remdesivir, remdesivir], the CC50 is greater than 50 µM.
